This is one part of the list.
Columns and labels:
Assay in all cases: NMR binding call after quantification (hit when 2 of 3 NMR criteria are met) (binary (1 = binding, 0 = not binding)); higher = binding
Conditions in all cases: RNA concentration 10 µM; fragment concentration 200 µM; 293 K
SARS-CoV-2 3'-UTR RNA = test system: SARS-CoV-2 3'-UTR RNA
SARS-CoV-2 3_SL1 RNA = test system: SARS-CoV-2 3_SL1 RNA
SARS-CoV-2 3_SL2 RNA = test system: SARS-CoV-2 3_SL2 RNA
SARS-CoV-2 3_SL3base RNA = test system: SARS-CoV-2 3_SL3base RNA
SARS-CoV-2 3_s2m RNA = test system: SARS-CoV-2 3_s2m RNA
SARS-CoV-2 3_SL1+2 RNA = test system: SARS-CoV-2 3_SL1+2 RNA

Measured: NMR binding call

CC(=O)Nc1ccc(N2CCN(C)CC2)cc1
not listed: SARS-CoV-2 3_SL1+2 RNA
0: all other assays above

CCCc1cc(=O)oc2cc(OC(C)=O)ccc12
0: SARS-CoV-2 3_SL1 RNA | SARS-CoV-2 3_SL1+2 RNA | SARS-CoV-2 3_SL3base RNA | SARS-CoV-2 3_s2m RNA

CC(C)C(=O)NCc1nc2ccccc2[nH]1
not listed: SARS-CoV-2 3_SL1+2 RNA
0: all other assays above

CCN(CC)S(=O)(=O)c1ccc(C)cc1
not listed: SARS-CoV-2 3'-UTR RNA
0: all other assays above

CCOc1ccc(C(=O)Nc2cc(C)on2)cc1
not listed: SARS-CoV-2 3'-UTR RNA
0: all other assays above

c1coc(CNc2nc3ccccc3[nH]2)c1
0: SARS-CoV-2 3_SL1 RNA | SARS-CoV-2 3_SL2 RNA | SARS-CoV-2 3_s2m RNA
1: SARS-CoV-2 3_SL1+2 RNA | SARS-CoV-2 3_SL3base RNA

CC(=O)Nc1ccncc1C
1: SARS-CoV-2 3'-UTR RNA
not listed: SARS-CoV-2 3_SL1+2 RNA
0: all other assays above

N#CCC(=O)Nc1ccc(Cl)cc1
not listed: SARS-CoV-2 3_SL1+2 RNA
0: all other assays above

Cc1cccc(C(=O)Nc2ccc(C)cc2O)c1
not listed: SARS-CoV-2 3'-UTR RNA
0: all other assays above

COc1ccc(Nc2ncnc3[nH]cnc23)cc1
0: SARS-CoV-2 3_SL1 RNA | SARS-CoV-2 3_SL2 RNA
1: SARS-CoV-2 3'-UTR RNA | SARS-CoV-2 3_SL3base RNA

O=C(CC1CCCCC1)Nc1cccnc1
not listed: SARS-CoV-2 3_SL1+2 RNA
0: all other assays above

CC(O)CNC(=O)Nc1ccccc1 (stereo not given)
not listed: SARS-CoV-2 3'-UTR RNA
0: all other assays above

CC(C)Nc1nc2ccccc2[nH]1
not listed: SARS-CoV-2 3'-UTR RNA
0: all other assays above

O=C(NCCc1ccncc1)NC1CCCCC1
not listed: SARS-CoV-2 3'-UTR RNA
0: all other assays above

Nc1ncncc1-c1ccc(Cl)cc1
not listed: SARS-CoV-2 3'-UTR RNA
0: all other assays above

FC(F)(F)c1ccc(CN2CCOCC2)cc1
not listed: SARS-CoV-2 3_SL1+2 RNA
0: all other assays above

Cc1occc1C(=O)Nc1cc(C(C)(C)C)on1
0: SARS-CoV-2 3'-UTR RNA | SARS-CoV-2 3_SL1 RNA | SARS-CoV-2 3_s2m RNA

CNS(=O)(=O)c1ccccc1Cl
not listed: SARS-CoV-2 3_SL1+2 RNA
0: all other assays above

O=C(Nc1ccc(O)cc1)c1ccc(Cl)cc1
1: SARS-CoV-2 3'-UTR RNA | SARS-CoV-2 3_SL3base RNA
0: SARS-CoV-2 3_SL2 RNA | SARS-CoV-2 3_s2m RNA

Cc1ccc(C(=O)Nc2nnc[nH]2)cc1C
not listed: SARS-CoV-2 3'-UTR RNA
0: all other assays above

COC(=O)c1ccccc1NC(=O)N1CCCC1
0: SARS-CoV-2 3'-UTR RNA | SARS-CoV-2 3_SL1 RNA | SARS-CoV-2 3_SL3base RNA

Cc1ccc(CNC(=O)C2CCC2)cn1
0: SARS-CoV-2 3_SL1 RNA | SARS-CoV-2 3_SL1+2 RNA | SARS-CoV-2 3_SL2 RNA | SARS-CoV-2 3_s2m RNA

CN(C)c1ccncc1
not listed: SARS-CoV-2 3'-UTR RNA
0: all other assays above

Cl.NC1CCN(S(=O)(=O)c2ccccc2)C1 (stereo not given)
0: SARS-CoV-2 3'-UTR RNA | SARS-CoV-2 3_SL2 RNA | SARS-CoV-2 3_SL3base RNA | SARS-CoV-2 3_s2m RNA

COc1ccc(C(N)c2ccccc2)cc1.Cl (stereo not given)
not listed: SARS-CoV-2 3_SL1+2 RNA
0: all other assays above

COCC(=O)Nc1ccccc1C(N)=O
not listed: SARS-CoV-2 3_SL1 RNA
0: all other assays above

O=C(NO)c1ccc2ccccc2n1
not listed: SARS-CoV-2 3'-UTR RNA
0: all other assays above

Cc1cc2ncn(CC(N)=O)c2cc1C
1: SARS-CoV-2 3'-UTR RNA
not listed: SARS-CoV-2 3_SL1+2 RNA
0: all other assays above

CC(=O)Nc1ccccc1OCc1ccccc1
not listed: SARS-CoV-2 3'-UTR RNA
0: all other assays above

O=C(Nc1ccc(F)cc1)Nc1cccc(O)c1
not listed: SARS-CoV-2 3'-UTR RNA
0: all other assays above

Cc1nc2ccccc2n1CCC(N)=O
not listed: SARS-CoV-2 3_SL1+2 RNA
0: all other assays above

c1csc(-c2nnc[nH]2)n1
not listed: SARS-CoV-2 3_SL1 RNA
0: all other assays above

CC(C)N(C)c1ncnc2c1cnn2C
0: SARS-CoV-2 3_SL1 RNA | SARS-CoV-2 3_SL1+2 RNA | SARS-CoV-2 3_SL2 RNA | SARS-CoV-2 3_s2m RNA

COC(=O)C1CC(O)CN1C(=O)c1ccco1 (stereo not given)
not listed: SARS-CoV-2 3_SL1 RNA
0: all other assays above

Cc1cc(N2CCNCC2)nc(C)n1
not listed: SARS-CoV-2 3_SL1+2 RNA
0: all other assays above

O=C(Nc1ccccn1)c1cnccn1
not listed: SARS-CoV-2 3'-UTR RNA
0: all other assays above

Cc1ccccc1OCC(=O)Nc1ncccn1
not listed: SARS-CoV-2 3'-UTR RNA
0: all other assays above

O=C(NCCc1ccncc1)c1ccccc1F
not listed: SARS-CoV-2 3_SL1+2 RNA
0: all other assays above
